Values from PubChem BioAssay AID1259314 (Drosophila RNAi Screening Center, 2017)

Aim: 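Modifiers of manganese chloride toxicity in fly cells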 (primary screen)
System: Drosophila S2R+ cells
Knock-down reagent: long dsRNA against Drosophila genes
Duration: 5 days (4 days knock-down, then 1 day metal exposure)
Treatment: manganese chloride added to 15 mM for 24 hours
Read-out: 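Cellular ATP measured by luciferase light, scaled to the plate mean, averaged across replicates and z-scored over plates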
Direction: mean ATP z-score: higher = more ATP than the plate average, more viable cells under manganese
Call rule: 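a mean ATP z-score past 1.5 in either direction is called active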
Calls: active = strong ATP change, up or down; inactive = no strong ATP change
This is a random part of about 3,100 deposited reagents. 289 of them (9.3%) were called active. 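Active includes both higher and lower ATP than plate average; check the z-score sign for direction.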 A plus sign joins genes that one reagent is predicted to hit. Not stated in the record: the amount of reagent.

target gene | PubChem SID | mean ATP z-score | call
Itgbn | SID104183285 | 0.737 | inactive
Itgbn | SID104217363 | -0.583 | inactive
CG5342 | SID104195568 | 1.64 | active
Zdhhc8 | SID104197914 | -0.508 | inactive
Zdhhc8 | SID104217092 | 0.906 | inactive
CG2121 | SID104186611 | -0.357 | inactive
CG2121 | SID104186612 | -0.175 | inactive
Eglp1 | SID104184294 | -1.27 | inactive
Aplip1 | SID104201294 | -0.0251 | inactive
Aplip1 | SID104204856 | 0.169 | inactive
Sr-CI | SID104180582 | 0.229 | inactive
Sr-CI | SID104202952 | 0.156 | inactive
Or47a | SID104187283 | -0.00348 | inactive
CG13794 | SID104182090 | 2.34 | active
CG13794 | SID104203965 | 0.565 | inactive
Psn | SID104191535 | 0.203 | inactive
Prip | SID104186836 | 1.02 | inactive
Prip | SID104205003 | -0.356 | inactive
Fur2 | SID104199609 | -0.49 | inactive
CG32669 | SID104198656 | -0.378 | inactive
Zip42C.2 | SID104184796 | 0.89 | inactive
Zip42C.2 | SID104216596 | 0.00209 | inactive
CG13869 + CG11099 | SID104203080 | 1.26 | inactive
out | SID104199139 | -0.467 | inactive
out | SID104207457 | 0.707 | inactive
Gr36b | SID104201330 | 0.287 | inactive
Gr36b | SID104208362 | 0.482 | inactive
CG8026 | SID104186848 | 0.869 | inactive
ccb | SID104200293 | -0.0524 | inactive
CG30048 | SID104201741 | -0.0991 | inactive
CG30048 | SID104217461 | -0.588 | inactive
CG5421 | SID104182650 | -0.303 | inactive
CG5421 | SID104203313 | 1.58 | active
Dic4 | SID104190109 | -0.189 | inactive
CG31259 | SID104194158 | -0.14 | inactive
CG31259 | SID104217389 | -0.392 | inactive
bond | SID104195927 | -0.531 | inactive
bond | SID104202864 | -0.112 | inactive
CG13223 | SID104186136 | -0.331 | inactive
CG13223 | SID104217289 | 0.375 | inactive
CG1636 | SID104197903 | 4.48 | active
unc-5 | SID104185337 | 1.91 | active
unc-5 | SID104187503 | -0.00243 | inactive
unc-5 | SID104187504 | 0.223 | inactive
CG31221 | SID104196009 | 0.351 | inactive
CG31221 | SID104202871 | -0.0478 | inactive
CG31904 + CG13796 | SID104201708 | -0.215 | inactive
prom | SID104201658 | 0.453 | inactive
prom | SID104205372 | 0.86 | inactive
prom | SID104206101 | 0.178 | inactive
prom | SID104217224 | 1.17 | inactive
Tsp33B | SID104182210 | -0.102 | inactive
Tsp33B | SID104207526 | -0.515 | inactive
wls | SID104190397 | -0.651 | inactive
wls | SID104207857 | -0.584 | inactive
Ir67b | SID104189668 | -1.43 | inactive
CG9308 | SID104184331 | -0.783 | inactive
CG9308 | SID104207506 | -0.352 | inactive
PGRP-LE | SID104199929 | 0.672 | inactive
Mgat2 | SID104196139 | -0.992 | inactive
Mgat2 | SID104207649 | -0.439 | inactive
Or82a | SID104191788 | -0.0638 | inactive
Or82a | SID104217057 | 0.0136 | inactive
Ret | SID104183201 | -0.0127 | inactive
Ret | SID104183202 | 0.103 | inactive
Ret | SID104214595 | 0.25 | inactive
Nckx30C | SID104182478 | 0.457 | inactive
Nckx30C | SID104182479 | 0.494 | inactive
Nckx30C | SID104182480 | -1.32 | inactive
CG14232 | SID104199380 | -1.1 | inactive
CG14232 | SID104206258 | 0.147 | inactive
Ctl1 | SID104188095 | 0.453 | inactive
Ctl1 | SID104217022 | 1.29 | inactive
CG6928 | SID104190541 | 0.25 | inactive
CG6928 | SID104217329 | -0.993 | inactive

Reagents listed so far with an active call:
target gene | PubChem SID | mean ATP z-score | call
CG5342 | SID104195568 | 1.64 | active
CG13794 | SID104182090 | 2.34 | active
CG5421 | SID104203313 | 1.58 | active
CG1636 | SID104197903 | 4.48 | active
unc-5 | SID104185337 | 1.91 | active
